Test results published in article PMC8283807.
Results are given in words; binding and its absence hold for the method and conditions named. In cells and extracts the contact can be indirect. Some binding calls cover weakened binding; strength is not graded here.

Chains of the proteins cited; added tags and fusions are not shown.
UniProt Q8R4B8: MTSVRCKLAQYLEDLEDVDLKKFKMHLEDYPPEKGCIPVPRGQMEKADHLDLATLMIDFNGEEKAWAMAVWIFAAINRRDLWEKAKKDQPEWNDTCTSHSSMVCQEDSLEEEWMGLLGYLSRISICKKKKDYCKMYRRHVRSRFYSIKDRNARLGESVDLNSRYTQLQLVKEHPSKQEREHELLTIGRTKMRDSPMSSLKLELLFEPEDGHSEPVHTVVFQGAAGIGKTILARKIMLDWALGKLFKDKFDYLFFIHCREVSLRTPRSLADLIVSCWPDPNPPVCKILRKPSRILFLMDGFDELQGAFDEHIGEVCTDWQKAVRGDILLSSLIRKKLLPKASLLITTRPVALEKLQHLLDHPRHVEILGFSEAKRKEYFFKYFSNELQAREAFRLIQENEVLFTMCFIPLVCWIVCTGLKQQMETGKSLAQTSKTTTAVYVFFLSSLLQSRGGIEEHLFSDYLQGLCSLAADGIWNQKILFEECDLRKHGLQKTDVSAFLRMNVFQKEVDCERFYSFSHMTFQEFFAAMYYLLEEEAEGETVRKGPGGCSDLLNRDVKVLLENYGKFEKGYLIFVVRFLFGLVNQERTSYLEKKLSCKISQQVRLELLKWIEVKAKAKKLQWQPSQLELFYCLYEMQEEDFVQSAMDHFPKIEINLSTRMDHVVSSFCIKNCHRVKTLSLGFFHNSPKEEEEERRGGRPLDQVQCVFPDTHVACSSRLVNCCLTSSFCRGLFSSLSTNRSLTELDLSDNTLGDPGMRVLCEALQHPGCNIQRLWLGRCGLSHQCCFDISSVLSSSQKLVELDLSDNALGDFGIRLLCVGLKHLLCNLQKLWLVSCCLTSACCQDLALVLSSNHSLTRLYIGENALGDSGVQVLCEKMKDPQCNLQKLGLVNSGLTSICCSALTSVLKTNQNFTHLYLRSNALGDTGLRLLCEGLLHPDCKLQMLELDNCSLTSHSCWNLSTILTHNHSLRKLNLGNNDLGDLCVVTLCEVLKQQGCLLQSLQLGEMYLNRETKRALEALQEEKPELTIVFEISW

Experiments:
[1] = target: NLR family pyrin domain containing 3 (NLRP3) (mouse (endogenous in mouse primary microglia)) (UniProt Q8R4B8); assay: proximity ligation; Duo-link PLA in fixed mouse primary microglia with antibodies against NLRP3 and TXNIP; cells treated with αSynagg or vehicle (18 h in the methods, 24 h in the legend); puncta quantified with ImageJ
[2] = target: NLR family pyrin domain containing 3 (NLRP3) (mouse (endogenous in mouse primary microglia)) (UniProt Q8R4B8); assay: co-IP; endogenous proteins in cell lysate (TNE buffer: 10 mM Tris-HCl pH 7.5, 1% Nonidet P-40, 0.15 M NaCl, 1 mM EDTA), protein A/G magnetic beads; cells treated with αSynagg or vehicle; legend: IP with NLRP3, immunoblot with TXNIP antibody; methods: IP with anti-TXNIP antibody

B1: Thioredoxin-interacting protein (TXNIP) (protein, UniProt Q8BG60 1-397)
chain: MVMFKKIKSFEVVFNDPEKVYGSGEKVAGRVIVEVCEVTRVKAVRILACGVAKVLWMQGSQQCKQTLDYLRYEDTLLLEEQPTAGENEMVIMRPGNKYEYKFGFELPQGPLGTSFKGKYGCVDYWVKAFLDRPSQPTQEAKKNFEVMDLVDVNTPDLMAPVSAKKEKKVSCMFIPDGRVSVSARIDRKGFCEGDDISIHADFENTCSRIVVPKAAIVARHTYLANGQTKVFTQKLSSVRGNHIISGTCASWRGKSLRVQKIRPSILGCNILKVEYSLLIYVSVPGSKKVILDLPLVIGSRSGLSSRTSSMASRTSSEMSWIDLNIPDTPEAPPCYMDIIPEDHRLESPTTPLLDDVDDSQDSPIFMYAPEFQFMPPPTYTEVDPCVLNNNNNNNNVQ
For B1, the binding [1] was “binds” and the binding [2] was “binds”.
